PubChem BioAssay AID652243, Drosophila RNAi Screening Center, 2013

Assay: 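Knock-downs that decrease or increase androgen receptor reporter signal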 (primary screen)
System: Drosophila S2R+ cells
Knock-down reagent: long dsRNA against Drosophila genes
Duration: 72 h (48 h, then 24 h hormone)
Challenge: synthetic androgen R1881 at 10 nM for 24 h
Measurement: 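Firefly light from an androgen-responsive reporter and Renilla control light per well, raw and unnormalised, for each of two replicates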
Direction: firefly reporter light: higher = more light from androgen-responsive reporter; Renilla control light: higher = more constitutive control signal (cell number, transfection)
Rule for the call: 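Across duplicate plates, a knock-down whose log firefly/Renilla ratio shifted a set fold down or up from the GFP/LacZ control mean was a hit; the downward cut appears as both 1.5 and 3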
Meaning of the calls: active = hit: reporter lowered or raised; inactive = no hit
In all, the deposit lists about 24,000 reagents; shown is a random part of those with a known target gene and a result. Of all reagents, 246 (1%) were called active. 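Plates not normalised; calls are printed but the firefly/Renilla ratio behind them is not deposited; fold cut for lowering reported inconsistently.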 Raw values vary from plate to plate and are shown uncorrected. Names joined by + are all predicted targets of the reagent. Not stated in the record: the amount of reagent.

Gene	dsRNA	firefly reporter light, replicate 1	firefly reporter light, replicate 2	Renilla control light, replicate 1	Renilla control light, replicate 2	outcome
Dhc36C	DRSC03315	1.49e5	1.91e5	1.94e6	2.25e6	inactive
Tig	DRSC03456	1.38e5	85024	1.21e6	1.10e6	inactive
Tig	DRSC28388	6.20e5	8.29e5	8.45e5	1.12e6	inactive
CG4553	DRSC15595	1.79e5	2.41e5	2.39e6	2.31e6	inactive
CG4553	DRSC28957	5.05e5	3.97e5	1.57e6	9.18e5	inactive
Ant2	DRSC19330	1.24e5	1.10e5	7.99e5	8.54e5	inactive
Ant2	DRSC26446	2.90e5	4.14e5	6.46e5	7.15e5	inactive
nub	DRSC02498	1.80e5	2.10e5	1.59e6	1.42e6	inactive
nub	DRSC03583	1.11e5	1.60e5	9.53e5	1.13e6	inactive
nub	DRSC23066	1.61e5	3.49e5	7.58e5	9.67e5	inactive
nub	DRSC25610	7.47e5	6.81e5	6.21e5	7.21e5	inactive
nub	DRSC27113	8.14e5	4.94e5	1.21e6	1.08e6	inactive
nub	DRSC28839	4.68e5	6.03e5	1.95e5	2.84e5	active
nub	DRSC39102	3.86e5	2.87e5	2.08e6	2.16e6	active
Regnase-1	DRSC14278	48106	70181	5.70e5	5.09e5	inactive
FIG4	DRSC00515	6.12e5	4.28e5	1.24e6	1.06e6	inactive
Meltrin	DRSC16274	71341	98109	6.78e5	1.03e6	inactive
Meltrin	DRSC21693	5.22e5	6.29e5	3.23e6	2.02e6	inactive
Ir7a	DRSC17866	1.22e5	2.06e5	1.49e6	2.38e6	inactive
RpS28b	DRSC18258	1.08e5	1.15e5	6.81e5	5.31e5	inactive
RpS28b	DRSC29909	3.61e5	2.83e5	9.97e5	1.01e6	inactive
Obp56c	DRSC06552	4.03e5	3.37e5	2.95e6	2.29e6	inactive
Obp56c	DRSC22325	9.31e5	9.66e5	1.83e6	1.52e6	inactive
Obp56c	DRSC28276	4.04e5	6.96e5	1.32e6	2.02e6	inactive
CG3347	DRSC00597	95961	1.12e5	7.82e5	8.35e5	inactive
GstZ2	DRSC16479	43264	1.11e5	3.76e5	7.09e5	inactive
Acp53Ea	DRSC05916	68163	58459	1.07e6	1.07e6	inactive
tyf	DRSC18382	1.87e5	1.17e5	3.01e6	2.08e6	inactive
tyf	DRSC26245	1.23e5	1.29e5	5.37e5	5.01e5	inactive
snoRNA:U31:54Ec + snoRNA:snR38:54Eb + snoRNA:U27:54Eb + 8 more	DRSC06458	1.09e5	1.02e5	2.02e6	2.02e6	inactive
Pka-C3	DRSC09402	2.46e5	2.17e5	4.31e5	4.01e5	inactive
Pka-C3	DRSC11254	60653	33890	8.84e5	5.44e5	inactive
Pka-C3	DRSC25050	4.47e5	3.25e5	5.48e5	4.63e5	inactive
CG5565	DRSC00690	1.12e5	89558	9.11e5	8.19e5	inactive
Naxe	DRSC18251	2.16e5	4.78e5	2.91e6	3.35e6	inactive
CG8046	DRSC07059	9.74e5	1.02e6	2.55e6	2.92e6	inactive
scaRNA:MeU5-C46	DRSC36572	9.18e5	6.53e5	1.33e6	9.81e5	inactive
CG17597	DRSC02630	8.98e5	9.10e5	1.45e6	1.82e6	inactive
CG17597	DRSC24788	9.78e5	1.07e6	6.98e5	7.08e5	inactive
CG1172	DRSC12182	32226	38923	6.62e5	6.91e5	inactive
CG1172	DRSC21954	3.08e5	2.62e5	1.14e6	1.01e6	inactive
CG1172	DRSC23672	9.25e5	7.36e5	1.10e6	9.47e5	inactive
CG14760	DRSC06495	1.66e5	1.37e5	1.61e6	1.36e6	inactive
CG14760	DRSC23957	6.43e5	6.94e5	4.34e5	4.41e5	inactive
eIF3c	DRSC06905	70691	76491	7.44e5	7.44e5	inactive
Gprk1	DRSC20732	1.79e5	1.91e5	1.87e5	1.48e5	inactive
Gprk1	DRSC20916	6.75e5	1.17e6	6.51e5	7.00e5	inactive
Gprk1	DRSC39307					inactive
Cpr11B	DRSC19859	3.38e5	2.22e5	7.94e5	6.51e5	inactive
pod1	DRSC18362	50410	59134	4.90e5	3.49e5	inactive
pod1	DRSC23544	4.89e5	5.13e5	5.08e5	7.11e5	inactive
bur	DRSC03163	1.04e6	7.94e5	2.16e6	2.28e6	inactive
CG12464	DRSC06156	91688	91568	1.61e6	1.61e6	inactive
CG32461	DRSC11594	2.74e5	1.19e5	5.62e5	3.98e5	inactive
mTTF	DRSC01909	1.48e5	1.88e5	1.43e6	1.68e6	inactive
CG10019	DRSC24959	7.42e5	8.44e5	9.92e5	1.05e6	inactive
CG10019	DRSC39008	3.30e5	4.28e5	1.68e6	1.49e6	inactive
l(1)G0196	DRSC20591	6.38e5	6.60e5	1.28e6	1.06e6	inactive
l(1)G0196	DRSC20629	2.83e5	1.90e5	5.53e5	4.27e5	inactive
l(1)G0196	DRSC39295					inactive

10 entries already listed, sorted by “firefly reporter light, replicate 1”, high to low.
Gene	dsRNA	firefly reporter light, replicate 1	firefly reporter light, replicate 2	Renilla control light, replicate 1	Renilla control light, replicate 2	outcome
CG17597	DRSC24788	9.78e5	1.07e6	6.98e5	7.08e5	inactive
CG8046	DRSC07059	9.74e5	1.02e6	2.55e6	2.92e6	inactive
CG1172	DRSC23672	9.25e5	7.36e5	1.10e6	9.47e5	inactive
scaRNA:MeU5-C46	DRSC36572	9.18e5	6.53e5	1.33e6	9.81e5	inactive
CG17597	DRSC02630	8.98e5	9.10e5	1.45e6	1.82e6	inactive
CG1172	DRSC21954	3.08e5	2.62e5	1.14e6	1.01e6	inactive
Naxe	DRSC18251	2.16e5	4.78e5	2.91e6	3.35e6	inactive
CG14760	DRSC06495	1.66e5	1.37e5	1.61e6	1.36e6	inactive
CG5565	DRSC00690	1.12e5	89558	9.11e5	8.19e5	inactive
CG1172	DRSC12182	32226	38923	6.62e5	6.91e5	inactive
